Measurements from patent US8404647B2, “Peptidylarginine deiminase (PAD) inhibitors” (Chiralix B.V., priority 2008, dated 2013).
For some of these results: At least one peptide structure holds a part that was inferred or is arguable (an end, a ring closure or a residue). For some of these results: For at least one compound, name, drawing or mass did not settle the structure. Numbered stars: 1 amine (or outer) side, 2 acyl side, 3 side chain; on linkers, the order of the positions; unused ones are H or OH. Square brackets hold non-standard residues; d marks the D form. Peptide text beside a SMILES is read from it. * marks the point of attachment. Orn(fluoroacetimidoyl) = N=C(CF)NCCC[C@H](N)C(=O)O; X1 = N=C(CCl)NCCC[C@H](N[*:1])C(=O)[*:2]; Moc = COC(=O)*

Amino acid sequences for entries named in this document (tags omitted).
UniProt Q9UM07, whole entry: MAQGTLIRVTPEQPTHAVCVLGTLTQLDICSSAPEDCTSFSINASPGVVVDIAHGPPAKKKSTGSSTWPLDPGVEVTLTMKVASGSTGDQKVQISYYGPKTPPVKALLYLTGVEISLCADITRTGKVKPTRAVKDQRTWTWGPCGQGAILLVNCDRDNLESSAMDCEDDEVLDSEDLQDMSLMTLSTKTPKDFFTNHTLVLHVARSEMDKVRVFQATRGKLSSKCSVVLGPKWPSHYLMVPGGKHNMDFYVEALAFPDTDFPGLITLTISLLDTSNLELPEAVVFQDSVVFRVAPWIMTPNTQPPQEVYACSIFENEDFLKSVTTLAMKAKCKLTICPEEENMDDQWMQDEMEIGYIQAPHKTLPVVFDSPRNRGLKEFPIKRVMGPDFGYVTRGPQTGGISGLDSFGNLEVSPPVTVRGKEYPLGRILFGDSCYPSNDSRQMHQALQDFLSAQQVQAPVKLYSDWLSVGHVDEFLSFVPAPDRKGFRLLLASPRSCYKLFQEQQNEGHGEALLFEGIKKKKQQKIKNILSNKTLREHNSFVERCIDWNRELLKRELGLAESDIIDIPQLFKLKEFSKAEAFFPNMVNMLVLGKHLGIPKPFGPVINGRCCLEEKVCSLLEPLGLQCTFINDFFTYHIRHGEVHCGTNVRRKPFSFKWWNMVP
UniProt Q9Y2J8, whole entry: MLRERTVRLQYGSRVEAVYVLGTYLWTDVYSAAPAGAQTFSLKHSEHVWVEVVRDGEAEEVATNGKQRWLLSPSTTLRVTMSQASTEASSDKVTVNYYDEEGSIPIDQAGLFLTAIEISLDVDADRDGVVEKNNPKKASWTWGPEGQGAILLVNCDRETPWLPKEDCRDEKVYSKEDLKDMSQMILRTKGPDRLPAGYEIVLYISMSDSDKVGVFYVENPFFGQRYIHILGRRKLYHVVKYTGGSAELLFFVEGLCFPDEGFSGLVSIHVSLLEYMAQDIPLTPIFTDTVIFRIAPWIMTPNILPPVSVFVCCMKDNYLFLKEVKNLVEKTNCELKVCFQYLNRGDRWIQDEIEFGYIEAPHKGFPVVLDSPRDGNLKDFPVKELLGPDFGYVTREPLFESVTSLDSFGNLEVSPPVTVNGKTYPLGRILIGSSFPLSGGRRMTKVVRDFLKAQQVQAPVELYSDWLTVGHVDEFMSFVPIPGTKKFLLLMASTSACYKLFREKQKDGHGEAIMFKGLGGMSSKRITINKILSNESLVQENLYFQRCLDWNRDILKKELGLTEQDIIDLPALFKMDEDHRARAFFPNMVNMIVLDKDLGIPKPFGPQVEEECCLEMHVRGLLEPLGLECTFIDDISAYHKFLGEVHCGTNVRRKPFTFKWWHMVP

Experiments:
caspase-3 = target: T1, caspase-3 (Homo sapiens, UniProt P42574); assay: Caspase-3 activity assay (Ac-DEVDpNA cleavage); assay type: biochemical, mammalian; details: enzyme treated with inhibitor 10 min at room temperature
T1 sequence (P42574 29-175 limits assumed): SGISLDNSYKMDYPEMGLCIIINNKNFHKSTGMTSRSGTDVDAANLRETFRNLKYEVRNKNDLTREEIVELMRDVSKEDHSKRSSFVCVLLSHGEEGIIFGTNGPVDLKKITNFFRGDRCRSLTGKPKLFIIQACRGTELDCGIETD
T1 sequence (P42574 176-277 limits assumed): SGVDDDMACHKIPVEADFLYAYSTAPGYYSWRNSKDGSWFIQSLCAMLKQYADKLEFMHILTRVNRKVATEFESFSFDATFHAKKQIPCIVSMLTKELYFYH
Protocol: Upon incubation of purified recombinant caspase-3 with its commercially available substrate: acetyl-Asp-Glu-Val-Asp-p-nitroanilide (Ac-DEVDpNA) SEQ ID NO: 145 in CFS buffer (220 mM mannitol, 68 mM sucrose, 2mM NaCl, 2.5 mM KH2PO4, 10 mM HEPES, pH 7.4 plus a cocktail of protease inhibitors), the substrate is cleaved, pNA is released and its absorbance at 405 nm can be monitored.

PAD4 = PAD4 (Homo sapiens, UniProt Q9UM07); assay: Colorimetric assay (BAEE, DAMO/antipyrine), PAD4; assay type: biochemical; details: Table 22, colorimetric assay of Example 6; read-out: IC50 values (μM) hPAD4
PAD2 [1] = target: T2, PAD2 (Homo sapiens, UniProt Q9Y2J8); assay: Colorimetric assay (BAEE, DAMO/antipyrine), PAD2; assay type: biochemical; details: Table 22, colorimetric assay of Example 6; read-out: IC50 values (μM) hPAD2
Protocol: One of the assays that was used to investigate the inhibition of a PAD by the inhibitors, is the colorimetric assay that has been described previously {Sugawara et al. 1998}. In this assay benzoylarginine ethyl ester (BAEE) is incubated with a purified recombinant PAD enzyme as indicated in a buffer containing 50 mM Tris-HCl, pH 7.6, 10 mM CaCl2, 2 mM dithiothreitol for 3 hours at 37° C. […] After cooling down to room temperature, the absorbance is measured at 450 nm.
To test the efficacy of the inhibitors (see Table 21) in this assay, a recombinant PAD enzyme as indicated was pre-incubated with various concentrations of inhibitory compounds for 15 minutes at 37° C.
The capacity of various compounds to inhibit the human PAD2 (0.12 μM) and PAD4 (0.2 μM) in this colorimetric assay is illustrated in FIG. 4.

PAD2 [2] = target: T2, PAD2; assay: ABAP antibody based PAD enzyme activity assay, PAD2; assay type: biochemical; details: Table 20, second round of screening
Protocol: These 8 pentapeptides inhibitors are represented by SEQ ID NO: 12-19. (O(FA) stands for ornithine fluoroamidine, O(CA) stands for ornithine chloroamidine). The IC50's for human PAD2 and 4 as well as for mouse PAD2 and 4 were determined in an assay developed by Zendman and others {Zendman et al. 2007}. Of this series the inhibitor T-D-O(FA)-G-S(CXP5-101) (SEQ ID NO: 12) was the best PAD2 and PAD4 inhibitor. Subsequently, several modifications were brought to this lead compound.
To determine inhibition of PAD2 and PAD4 activity, the commercially available Antibody based PAD enzyme activity assay from ModiQuest Research (cat no: MQ17.101) has been used according to manufacturers specifications.
PAD enzymes (amounts that give maximum deimination) were mixed with PAD inhibitors at the following concentrations (4.9, 9.8, 19.5, 39, 78.1, 156, 313, 625, 1250, 2500 and 5000 μM) and pre-incubated for 30 minutes at 37° C. After pre-incubation, mixtures of PAD enzymes and inhibitors were added to the wells for an additional incubation of 75 minutes. After thoroughly washing the 96-well plates with PBS, the conversion of the arginines into citrullines of the coating was measured with the use of a propriety anti-citrulline-antibody, followed by a secondary HRP-labelled antibody recognizing the anti-citrulline antibody. Incubation with both antibodies was performed for 1 h at 37° C. […]

SMILES | IC50 (caspase-3) [µM] | IC50 (PAD4) [µM] | IC50 (PAD2 [1]) [µM] | IC50 (PAD2 [2]) [µM]
CC(=O)N[C@@H](Cc1ccc(O)cc1)C(=O)N[C@@H](CC(=O)O)C(=O)N[C@@H](CCCNC(=N)CCl)C(=O)NCC(=O)N[C@@H](CO)C(=O)O [CXP5.2-081, Ac-Y-D-O(CA)-G-S] (Ac-YD[X1]GS-OH; N-terminus and C-terminus assumed) | > 1000 | 10 | – | –
COC(=O)N[C@H](C(=O)N[C@@H](CC(=O)O)C(=O)N[C@@H](CCCNC(=N)CF)C(=O)NCC(=O)N[C@@H](CO)C(=O)OC)[C@@H](C)O [CXP5-101, MeO2C-T-D-O(FA)-G-S-methylester] (Moc-TD[Orn(fluoroacetimidoyl)]GS-OMe) | > 1000 | 10 | 35 | –
CC(=O)NCC(=O)N[C@@H](CC(=O)O)C(=O)N[C@@H](CCCNC(=N)CCl)C(=O)NCC(=O)N[C@@H](CO)C(=O)O [CXP5.2-078, Ac-G-D-O(CA)-G-S] (Ac-GD[X1]GS-OH; N-terminus and C-terminus assumed) | – | – | > 500 | –
CC[C@H](C)[C@H](NC(=O)[C@H](Cc1ccccc1)NC(=O)[C@H](CC(=O)O)NC(=O)[C@H](CCCNC(=N)CF)NC(=O)[C@H](CC(=O)O)NC(=O)[C@H](Cc1ccccc1)NC(=O)[C@@H](N)CCCCN)C(=O)O [SEQ ID NO: 124, K F D O(FA) D F I] (H-KFD[Orn(fluoroacetimidoyl)]DFI-OH) | – | – | – | 17
